These are yes or no findings as the source states them, for the method shown. In cells and extracts the contact can be indirect. Some results given as binding are weak or reduced against the parent protein; the word gives no strength. Sequences can lack the tags named with a protein.

Chains of the proteins cited; added tags and fusions are not shown. Lines headed by an entry give the natural chain unless they say otherwise; changes in a name come on top.
UniProt Q12692: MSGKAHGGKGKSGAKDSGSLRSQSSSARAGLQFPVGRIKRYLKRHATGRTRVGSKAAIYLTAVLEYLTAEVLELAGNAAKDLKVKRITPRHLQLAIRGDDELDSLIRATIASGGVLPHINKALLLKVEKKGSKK

Assay [1] deals with H2A.Z (Htz1), wild type, 2Flag-tagged (S. cerevisiae) (UniProt Q12692). Nature of the assay: co-IP; htz1Δ yeast strains bearing TAP-tagged Nap1 or Chz1, transformed with WT or mutant H2A.Z-2Flag plasmids; read by immunoblot; performed as in ref. 10. In general terms: A western blot detects proteins with antibodies after separation by electrophoresis.
The target of assay [2] is H2A.Z (Htz1), wild type, 2Flag-tagged (S. cerevisiae), Q12692. The assay is described as above. The following applies: remark: other sources report otherwise.

B1: TAP-tagged Nap1 (protein, UniProt P25293 1-417)
chain: MSDPIRTKPKSSMQIDNAPTPHNTPASVLNPSYLKNGNPVRAQAQEQDDKIGTINEEDILANQPLLLQSIQDRLGSLVGQDSGYVGGLPKNVKEKLLSLKTLQSELFEVEKEFQVEMFELENKFLQKYKPIWEQRSRIISGQEQPKPEQIAKGQEIVESLNETELLVDEEEKAQNDSEEEQVKGIPSFWLTALENLPIVCDTITDRDAEVLEYLQDIGLEYLTDGRPGFKLLFRFDSSANPFFTNDILCKTYFYQKELGYSGDFIYDHAEGCEISWKDNAHNVTVDLEMRKQRNKTTKQVRTIEKITPIESFFNFFDPPKIQNEDQDEELEEDLEERLALDYSIGEQLKDKLIPRAVDWFTGAALEFEFEEDEEEADEDEDEEEDDDHGLEDDDGESAEEQDDFAGRPEQAPECKQS
Turning to B1, the binding result in assay [1] is “binds”.

B2: TAP-tagged Chz1, P40019 1-153 (protein)
chain: MSDEAKEKRELESQKESSHNKSEKSVEPKPKRRRRRNYDDYDAEVAKEETKAKNGLTKSENNGTVEDSESDMDDAKLDALMGNEGEEEEDDLAEIDTSNIITSGRRTRGKVIDYKKTAEELDKKEPSTGSKDDVGYGEKEEDDEDEEDDDFKE
B2: the binding entry in assay [2] is “binds”.
